# PubChem BioAssay AID1259308, NCATS – 2017
# Purpose: 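Genes whose loss raises luciferase production in HEK293 cells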 (primary screen)
# Cells: human HEK293 embryonic kidney cells stably expressing firefly luciferase (HEK-CMV-Luc2-Hygro)
# Knock-down reagent: single siRNA against human genes, 0.8 pmol siRNA per well
# Timing: 72 h
# Read-out: 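Luciferase light (ONE-Glo) measured on one replicate plate set and viability (CellTiter-Glo) on the other, scaled to a negative control siRNA, with robust z-scores and luciferase per cell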
# Reading the numbers: total luciferase, z-score and total luciferase, % of control: higher = more reporter protein produced; luciferase per cell, z-score: higher = more reporter output per viable cell; viable cells, % of control: higher = more viable cells
# Active means: 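Active when the median/MAD z-score for overall luciferase is greater than 3; a gene was taken forward for validation with new siRNAs if at least two of its three siRNAs passed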
# Calls: active = raised luciferase; inactive = no rise
# The deposit covers about 59,000 reagents; below is a part drawn at random. About 1,510 of them (2.6%) count as active. 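Calls use total luciferase alone and ignore viability, so some active siRNAs may act by altering cell number.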 Reagents against one gene are numbered here.
gene,reagent,"total luciferase, z-score","total luciferase, % of control","luciferase per cell, z-score","viable cells, % of control",call
BBS2 (Bardet-Biedl syndrome 2),1,-0.169,78.5,-0.679,105,inactive
BBS2 (Bardet-Biedl syndrome 2),2,-1.9,44.1,-1.85,80.4,inactive
BBS2 (Bardet-Biedl syndrome 2),3,0.818,98.1,-0.169,115,inactive
RILPL2 (Rab interacting lysosomal protein like 2),1,-0.51,71.7,-0.687,96,inactive
RILPL2 (Rab interacting lysosomal protein like 2),2,0.0868,83.6,1.08,70.4,inactive
RILPL2 (Rab interacting lysosomal protein like 2),3,-0.204,77.8,-0.598,102,inactive
ETAA1 (ETAA1 activator of ATR kinase),1,-0.304,75.8,-0.614,99.6,inactive
ETAA1 (ETAA1 activator of ATR kinase),2,1.74,117,1.22,94.4,inactive
ETAA1 (ETAA1 activator of ATR kinase),3,0.669,95.2,0.728,87.8,inactive
PIGT (phosphatidylinositol glycan anchor biosynthesis class T),1,0.588,93.6,-0.051,106,inactive
PIGT (phosphatidylinositol glycan anchor biosynthesis class T),2,-0.473,72.5,-0.517,92.8,inactive
PIGT (phosphatidylinositol glycan anchor biosynthesis class T),3,-0.376,74.4,-0.674,99.3,inactive
GRHL1 (grainyhead like transcription factor 1),1,0.67,95.2,0.387,96.1,inactive
GRHL1 (grainyhead like transcription factor 1),2,1.04,102,0.891,90.6,inactive
GRHL1 (grainyhead like transcription factor 1),3,1.2,106,2.33,63.9,inactive
QPRT (quinolinate phosphoribosyltransferase),1,-0.0161,81.6,0.674,76.3,inactive
QPRT (quinolinate phosphoribosyltransferase),2,1.18,105,1.13,87.5,inactive
QPRT (quinolinate phosphoribosyltransferase),3,0.375,89.3,0.813,80.6,inactive
PTDSS1 (phosphatidylserine synthase 1),1,-0.365,74.6,-0.277,89.7,inactive
PTDSS1 (phosphatidylserine synthase 1),2,-0.261,76.7,0.457,76,inactive
PTDSS1 (phosphatidylserine synthase 1),3,0.0166,82.2,-0.758,112,inactive
ERGIC3 (ERGIC and golgi 3),1,2.91,140,1.66,101,inactive
ERGIC3 (ERGIC and golgi 3),2,0.291,87.7,0.317,90.1,inactive
ERGIC3 (ERGIC and golgi 3),3,1.41,110,0.373,111,inactive

2 entries already listed, sorted by “total luciferase, z-score”, low to high.
gene,reagent,"total luciferase, z-score","total luciferase, % of control","luciferase per cell, z-score","viable cells, % of control",call
BBS2 (Bardet-Biedl syndrome 2),2,-1.9,44.1,-1.85,80.4,inactive
BBS2 (Bardet-Biedl syndrome 2),1,-0.169,78.5,-0.679,105,inactive
